Source: article PMC4582117, “VEGF-A/NRP1 stimulates GIPC1 and Syx complex formation to promote RhoA activation and proliferation in skin cancer cells” (Biology Open, 2015)
No constants are given. Whether binding was seen depends on the method and setting. Binding seen in cells or lysates may run through a third protein. Some binding calls cover weakened binding; strength is not graded here. Tags and fused reporters may be left off the sequences shown.

Protein sequences, listed by entry. Tags and fused reporters are not part of them. Residues count along the entry.
UniProt O14786, residues 22-923: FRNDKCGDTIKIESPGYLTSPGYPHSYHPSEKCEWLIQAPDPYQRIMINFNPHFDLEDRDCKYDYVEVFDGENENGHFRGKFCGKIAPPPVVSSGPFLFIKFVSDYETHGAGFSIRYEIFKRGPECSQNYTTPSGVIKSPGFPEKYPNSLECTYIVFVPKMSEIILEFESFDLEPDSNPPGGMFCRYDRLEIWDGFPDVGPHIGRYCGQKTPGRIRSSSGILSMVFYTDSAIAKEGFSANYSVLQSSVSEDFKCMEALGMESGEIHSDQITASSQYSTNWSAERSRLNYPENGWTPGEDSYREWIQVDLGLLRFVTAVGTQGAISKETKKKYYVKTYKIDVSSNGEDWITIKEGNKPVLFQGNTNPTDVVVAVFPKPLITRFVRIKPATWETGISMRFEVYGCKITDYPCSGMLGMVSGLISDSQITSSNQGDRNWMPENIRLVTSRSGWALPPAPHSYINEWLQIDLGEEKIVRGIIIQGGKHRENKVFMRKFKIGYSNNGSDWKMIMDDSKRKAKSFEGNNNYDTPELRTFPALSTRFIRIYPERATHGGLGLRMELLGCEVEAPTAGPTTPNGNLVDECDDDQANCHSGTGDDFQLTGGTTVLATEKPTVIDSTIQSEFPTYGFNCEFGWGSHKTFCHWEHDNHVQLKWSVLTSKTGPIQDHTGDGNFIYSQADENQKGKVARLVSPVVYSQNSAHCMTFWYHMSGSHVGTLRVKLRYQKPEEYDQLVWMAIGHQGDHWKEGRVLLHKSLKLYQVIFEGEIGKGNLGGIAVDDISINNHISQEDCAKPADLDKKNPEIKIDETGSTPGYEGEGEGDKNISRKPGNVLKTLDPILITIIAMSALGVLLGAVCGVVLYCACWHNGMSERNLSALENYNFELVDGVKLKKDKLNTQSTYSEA

B1: V5-tagged Syx (protein, UniProt O94827 1-1006)
chain: MHYDGHVRFDLPPQGSVLARNVSTRSCPPRTSPAVDLEEEEEESSVDGKGDRKSTGLKLSKKKARRRHTDDPSKECFTLKFDLNVDIETEIVPAMKKKSLGEVLLPVFERKGIALGKVDIYLDQSNTPLSLTFEAYRFGGHYLRVKAPAKPGDEGKVEQGMKDSKSLSLPILRPAGTGPPALERVDAQSRRESLDILAPGRRRKNMSEFLGEASIPGQEPPTPSSCSLPSGSSGSTNTGDSWKNRAASRFSGFFSSGPSTSAFGREVDKMEQLEGKLHTYSLFGLPRLPRGLRFDHDSWEEEYDEDEDEDNACLRLEDSWRELIDGHEKLTRRQCHQQEAVWELLHTEASYIRKLRVIINLFLCCLLNLQESGLLCEVEAERLFSNIPEIAQLHRRLWASVMAPVLEKARRTRALLQPGDFLKGFKMFGSLFKPYIRYCMEEEGCMEYMRGLLRDNDLFRAYITWAEKHPQCQRLKLSDMLAKPHQRLTKYPLLLKSVLRKTEEPRAKEAVVAMIGSVERFIHHVNACMRQRQERQRLAAVVSRIDAYEVVESSSDEVDKLLKEFLHLDLTAPIPGASPEETRQLLLEGSLRMKEGKDSKMDVYCFLFTDLLLVTKAVKKAERTRVIRPPLLVDKIVCRELRDPGSFLLIYLNEFHSAVGAYTFQASGQALCRGWVDTIYNAQNQLQQLRAQEPPGSQQPLQSLEEEEDEQEEEEEEEEEEEEGEDSGTSAASSPTIMRKSSGSPDSQHCASDGSTETLAMVVVEPGDTLSSPEFDSGPFSSQSDETSLSTTASSATPTSELLPLGPVDGRSCSMDSAYGTLSPTSLQDFVAPGPMAELVPRAPESPRVPSPPPSPRLRRRTPVQLLSCPPHLLKSKSEASLLQLLAGAGTHGTPSAPSRSLSELCLAVPAPGIRTQGSPQEAGPSWDCRGAPSPGSGPGLVGCLAGEPAGSHRKRCGDLPSGASPRVQPEPPPGVSAQHRKLTLAQLYRIRTTLLLNSTLTASEV
B2: HA-tagged GIPC1 (GAIP interacting protein C terminus) (protein, UniProt O14908 1-333)
chain: MPLGLGRRKKAPPLVENEEAEPGRGGLGVGEPGPLGGGGSGGPQMGLPPPPPALRPRLVFHTQLAHGSPTGRIEGFTNVKELYGKIAEAFRLPTAEVMFCTLNTHKVDMDKLLGGQIGLEDFIFAHVKGQRKEVEVFKSEDALGLTITDNGAGYAFIKRIKEGSVIDHIHLISVGDMIEAINGQSLLGCRHYEVARLLKELPRGRTFTLKLTEPRKAFDMISQRSAGGRPGSGPQLGTGRGTLRLRSRGPATVEDLPSAFEEKAIEKVDDLLESYMGIRDTELAATMVELGKDKRNPDELAEALDERLGDFAFPDEFVFDVWGAIGDAKVGRY

Columns and labels:
[1] = molecular target: T1, V5-tagged Syx (UniProt O94827); assay: co-IP; NRP1, HA-GIPC1 and V5-Syx co-expressed in HEK293T; cells without or with VEGF-A (100 ng/ml, 15 min); lysed in RIPA buffer; immunoprecipitated with Syx, Protein G Sepharose, 4°C; western blot
T1 sequence: B1 chain

[2] = molecular target: T2, HA-tagged GIPC1 (GAIP interacting protein C terminus) (UniProt O14908); assay: co-IP; NRP1, HA-GIPC1 and V5-Syx co-expressed in HEK293T; cells without or with VEGF-A (100 ng/ml, 15 min); lysed in RIPA buffer; immunoprecipitated with GIPC1 (anti-HA), Protein G Sepharose, 4°C; western blot
T2 sequence: B2 chain

[3] = molecular target: T1, V5-tagged Syx; assay: co-IP; NRP1, GIPC1 and Syx expressed in HEK293T; cells treated with the Targeted or Scrambled peptide for 16 h, then without or with VEGF-A (100 ng/ml, 10 min); lysates immunoprecipitated with V5-tagged Syx; blot for GIPC1

Molecule | binding [1] | binding [2] | binding [3]
Human NRP1WT (Neuropilin-1 wild type) (from UniProt O14786 22-923) (receptor) | binds | binds | 
B1 |  | binds | 
B2 | binds |  | binds
